{"source": "PubChem BioAssay AID493014", "about": "(National Center for Advancing Translational Sciences (NCATS), 2011)", "note": "Out of some 340,000 compounds screened, about 170 (0.05%) were called active. Inconclusive means that the source gave no clear call. Such entries were picked first, then a sample of the others. Calls follow the shape of the dose curve; as a rule, active = well fitted inhibition curve with a large enough effect in the signal ratio, with a control signal flat (not every such curve was filed as active); inconclusive = small, poorly fitted or top-dose-only effect, or effect the other way, or a change in a side signal; inactive = flat fitted curve, though single readings scatter; the % refers to the signal ratio. Potencies beside an inconclusive call are fits to weak or partial responses and may not hold up."}
{"experiment": "qHTS Assay to Find Inhibitors of Chronic Active B-Cell Receptor Signaling; also: potency is read from the fitted curve at half-maximal effect;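 as to activity change, negative = inhibition: plate controls were basal doxycycline-induced cells for no effect and cells given 10 µM MG132 for full effect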", "settings": "ABC-DLBCL IkBa-CBG/CBR reporter, luminescence ratio (green luciferase fused to IkBa over red control in TMD8 lymphoma cells), 4 h; activity change, negative = inhibition: at 46.1 µM (top of the series) unless noted", "summary_of_the_method": "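TMD8 human ABC-DLBCL cells with doxycycline-inducible IκBα–green luciferase fusion and unfused red luciferase, in 0.5% FBS medium; compounds up to 46 uM, 4 h at 37C. Green/red luminescence ratio, filter-overlap corrected, fitted to concentration-response curves.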"}
{"compound": "C=CCn1c(SC(C)CC)nc(O)cc1=O", "note": "(stereo not given)", "activity change, negative = inhibition": "inactive: -0.0983%"}
{"compound": "CC(C)OC(=O)CSc1nc2ccccc2s1", "Potency": "inconclusive: 14.6 µM [rising, partial curve, poor fit]"}
{"compound": "O=C(C1=C(O)C(=O)N(CCc2ccccc2)C1c1ccncc1)c1cc2ccccc2o1", "note": "(stereo not given)", "activity change, negative = inhibition": "inactive: -0.278%"}
{"compound": "N=c1ccn(Cc2ccc(Cl)cc2)cc1", "activity change, negative = inhibition": "inactive: -2.07%"}
{"compound": "CC(=O)Nc1ccc(S(=O)(=O)N(C)S(=O)(=O)c2ccc(F)cc2)cc1", "activity change, negative = inhibition": "inconclusive: 0.59%"}
{"compound": "CN1CCN(C2=C(Cl)C(=O)N(c3ccc(Cl)c(Cl)c3)C2=O)CC1", "Potency": "inconclusive: 20 µM [falling, single point]"}
{"compound": "COC(=O)Cc1c(C)nc2nc(-c3ccc(C)cc3)[nH]n2c1=O", "Potency": "inconclusive: 6.51 µM [rising, full curve]"}
{"compound": "O=C(Nc1ccccc1C(=O)OCC(=O)N1CCc2ccccc2C1)c1ccco1", "activity change, negative = inhibition": "inconclusive: -12.8%"}
{"compound": "Clc1ccc(-c2nc3cnccn3c2NC2CCCC2)cc1", "activity change, negative = inhibition": "inactive: -0.665%"}
{"compound": "COc1ccc(NC(=S)N(CCc2c(C)[nH]c3ccc(C)cc23)Cc2cccs2)cc1", "activity change, negative = inhibition": "inconclusive: -2.03%"}
{"compound": "O=C(O)CSC1CC(=O)N(c2cccc(Cl)c2)C1=O", "note": "(stereo not given)", "activity change, negative = inhibition": "inconclusive: 1.31%"}
{"compound": "COc1ccc(-c2cc(C(=O)N(C)CC(=O)Nc3cccc(F)c3)c3ccccc3n2)cc1", "activity change, negative = inhibition": "inconclusive: -12.5%"}
{"compound": "N#C/C(=C\\c1ccc[nH]1)S(=O)(=O)c1ccccc1", "activity change, negative = inhibition": "inconclusive: -3.34%"}
{"compound": "O=C(Nc1nnc(-c2ccco2)s1)C1CCCCC1", "activity change, negative = inhibition": "inconclusive: -12.1%"}
{"compound": "N/C(=N\\OC(=O)C1CCCCC1)c1ccc(Cl)cc1", "activity change, negative = inhibition": "inconclusive: 10.1%"}
{"compound": "CCOC(=O)C1CCCN(Cc2ccc(OCc3ccccc3)cc2)C1", "note": "(stereo not given)", "Potency": "inconclusive: 3.98 µM [falling, full curve]"}
{"compound": "O=C(NN/C(=N/S(=O)(=O)c1ccc(Cl)cc1)c1ccccc1)c1cccc(Cl)c1", "Potency": "inconclusive: 15.8 µM [falling, single point]"}
{"compound": "CN(C)S(=O)(=O)c1cccc(C(=O)NCc2cccs2)c1", "activity change, negative = inhibition": "inconclusive: -2.14%"}
{"compound": "COc1cc(OC)c(OC)cc1CNC(=O)CCN1C(=O)c2cccc([N+](=O)[O-])c2C1=O", "activity change, negative = inhibition": "inconclusive: -0.738%"}
{"compound": "CCN1CCSc2ccc(C(=O)NCc3ccccc3Br)cc21", "Potency": "inconclusive: 3.55 µM [falling, partial curve, poor fit]"}
{"compound": "CCn1c(COc2cccc3cccnc23)nnc1SCC(=O)OC", "activity change, negative = inhibition": "inactive: 2.43%"}
{"compound": "O=c1ccn(CCOc2ccc(Cl)cc2)c(=O)[nH]1", "Potency": "inconclusive: 12.6 µM [falling, partial curve, poor fit]"}
{"compound": "O=C(Nc1ccc(SC(F)F)cc1)c1ccccc1F", "Potency": "inconclusive: 22.4 µM [falling, single point]"}
{"compound": "CCN(CC)CCN1C(=O)C(=O)/C(=C(/O)c2cnn(-c3ccccc3)c2C)C1c1cccs1", "note": "(stereo not given)", "Potency": "inconclusive: 1.58 µM [rising, full curve, poor fit]"}
{"compound": "Cc1cccc(NC(=O)C2=C(O)c3ccccc3N(C)S2(=O)=O)c1", "Potency": "inconclusive: 4.61 µM [falling, single point]"}
{"compound": "CCOC(=O)c1cc2c(ccn2C)n1Cc1ccc(C#N)cc1", "activity change, negative = inhibition": "inconclusive: -7.08%"}
{"compound": "COc1nc(NCc2ccc(Cl)cc2)nc(OC)n1", "activity change, negative = inhibition": "inconclusive: -6.36%"}
{"compound": "COc1ccc(NC(=O)Cn2c(-c3ccccc3)cn(-c3ccc(C)cc3)c2=O)cc1", "activity change, negative = inhibition": "inconclusive: 23.4%"}
{"compound": "Cc1nc(NC(=O)CSc2nc(N)cc(N)n2)sc1C", "activity change, negative = inhibition": "inactive: -4.18%"}
{"compound": "COCCN(CCOC)C(=O)Nc1ccc(Cl)cc1", "activity change, negative = inhibition": "inconclusive: 1.32%"}
{"compound": "C#CCSc1nnc(-c2ccc(C)cc2)o1", "Potency": "inconclusive: 29.1 µM [falling, single point]"}
{"compound": "Cc1cc(C(=O)COC(=O)[C@H](C)NC(=O)c2ccco2)c(C)n1Cc1ccco1", "activity change, negative = inhibition": "inconclusive: 5.08%"}
{"compound": "COc1cccc(OCC(O)CNC(=O)c2oc3c(C)c(C)ccc3c2C)c1", "note": "(stereo not given)", "Potency": "inconclusive: 20 µM [falling, partial curve, poor fit]"}
{"compound": "CC(C)(C)[C@H]1CCC(=O)N([C@H](CN=[N+]=[N-])Cc2ccccc2)CC1", "activity change, negative = inhibition": "inactive: 6.62%"}
{"compound": "COc1cccc(/C=N/N2CCN(C3c4ccccc4-c4ccccc43)CC2)c1O", "activity change, negative = inhibition": "inconclusive: -1.15%"}
{"compound": "Cc1cc(C)cc(N(CC(=O)NC(C)(C)C)C(=O)CNC(=O)c2cccs2)c1", "Potency": "inconclusive: 6.31 µM [falling, single point]"}
{"compound": "CCn1c(=O)c(C(=O)Nc2nc3ccccc3[nH]2)c(O)c2ccccc21", "Potency": "inconclusive: 7.94 µM [falling, partial curve]"}
{"compound": "CCc1ccc(NCc2ccc(OC)c(Cn3ccnc3)c2)cc1", "activity change, negative = inhibition": "inconclusive: 0.897%"}
{"compound": "Cc1cc(C)n(CCC(=O)N/N=C/c2c(O)ccc3ccccc23)n1", "activity change, negative = inhibition": "inconclusive: -19.4%"}
{"compound": "COc1cccc(NC(=O)[C@H](Cc2c[nH]c3ccccc23)NC(=O)[C@@H]2Cc3ccccc3CN2)c1", "activity change, negative = inhibition": "inconclusive: -12.3%"}
{"compound": "O=C(CCC(=O)N1CCN(c2ccc(O)cc2)CC1)c1ccc(Br)cc1", "Potency": "inconclusive: 22.4 µM [falling, single point]"}
{"compound": "COC(=O)c1ccc(-n2ccnc2)cc1", "activity change, negative = inhibition": "inconclusive: -15%"}
{"compound": "C=CCN1C2CCCC1CC(NC(=S)Nc1ccc(Cl)cc1)C2", "note": "(stereo not given)", "activity change, negative = inhibition": "inconclusive: -5.84%"}
{"compound": "CC(=O)NC1(c2nnnn2CCOC(=O)Nc2ccc(Cl)cc2)CCCC1", "Potency": "inconclusive: 5.01 µM [rising, full curve, poor fit]"}
{"compound": "COc1ccc(C(=O)c2c3ccc([N+](=O)[O-])cc3[n+]([O-])n2CCCN)cc1", "Potency": "inconclusive: 25.9 µM [falling, single point]"}
{"compound": "CCOC(=O)N1CCN(Cc2nc3cc(NC(=O)C(C)C)ccc3n2CC)CC1", "activity change, negative = inhibition": "inconclusive: -1.56%"}
{"compound": "Cc1ccc(NC(=S)Nc2ccccn2)c(C)c1", "activity change, negative = inhibition": "inconclusive: 15.9%"}
{"compound": "CCOCCCNC(=O)c1ccc(N(C)S(=O)(=O)c2ccc(OC)cc2)cc1", "activity change, negative = inhibition": "inconclusive: -2.37%"}
{"compound": "Cc1cc(C)c(S(=O)(=O)n2ccc3ccccc32)c(C)c1", "Potency": "inconclusive: 7.31 µM [falling, partial curve, poor fit]"}
{"compound": "CC1CCC2(CC1)NC(=O)N(NC(=O)c1ccc(OC(C)C)cc1)C2=O", "note": "(stereo not given)", "activity change, negative = inhibition": "inconclusive: 11.7%"}
